System: U-2OS cells
Experiment: cell viability (CCK8), protein delivery combined with TAS-120 or IWR-1, U-2OS
Format: cell-based, human
Settings: LLPSE-p53 (SEQ ID NO.3) protein 0.5-2 μM 24 h, then inhibitor 5-20 μM 24 h; compared with inhibitor plus buffer
Method: The above system was sterilized with a 0.22 μm filter membrane. • 4. The complete medium in the well plate was sucked and discarded, and the above protein delivery system was added, the plate was then placed in an incubator for culture for 24 h. • 5. […] Cell viability was measured by a CCK8 method and with a M5 microplate reader. • 7. Graphpad5 software was used for data processing and one-way ANOVA method was used for statistical analysis.

## C=CC(=O)N1CC[C@H](n2nc(C#Cc3cc(OC)cc(OC)c3)c3c(N)ncnc32)C1 [TAS-120]
  killing of U-2OS cells by the inhibitor when combined with LLPSE-p53 protein: significantly promotes TAS-120 or IWR-1 to kill U-2OS cells
